Test results reported in publication PMC7472703, “DNA methylation suppresses chitin degradation and promotes the wing development by inhibiting Bmara-mediated chitinase expression in the silkworm, Bombyx mori”.
The exact form of at least one protein or probe is not confirmed. At least one result comes from cells or an extract, where the contact may be indirect. Tags and fusion partners may be left off the protein sequences shown.

Molecular target: T1, Bmara-FLAG (Bombyx mori) (UniProt A0A8R1WJM2)
T1 sequence (looked up, limits assumed): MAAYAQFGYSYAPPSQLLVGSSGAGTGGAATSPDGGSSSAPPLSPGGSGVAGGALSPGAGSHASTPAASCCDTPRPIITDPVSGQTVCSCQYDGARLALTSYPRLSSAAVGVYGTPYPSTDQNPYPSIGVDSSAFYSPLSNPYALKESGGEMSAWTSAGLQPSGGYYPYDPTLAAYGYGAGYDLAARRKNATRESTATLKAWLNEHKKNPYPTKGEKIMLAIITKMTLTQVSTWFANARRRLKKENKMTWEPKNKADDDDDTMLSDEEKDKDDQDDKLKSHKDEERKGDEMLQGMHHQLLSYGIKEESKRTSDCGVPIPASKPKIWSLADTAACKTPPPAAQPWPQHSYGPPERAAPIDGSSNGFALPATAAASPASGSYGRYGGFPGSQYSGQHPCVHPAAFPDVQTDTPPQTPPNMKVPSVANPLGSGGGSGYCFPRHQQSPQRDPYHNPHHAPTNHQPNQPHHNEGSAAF
Assay: pull-down
Details: 10 mM Mg acetate, 5 mM EGTA, anti-FLAG Western blot, Pull-down: 10 mM HEPES pH 7.6, 100 mM K glutamate, 80 mM KCl, 2.5 mM DTT, 3.5% glycerol, 0.001% NP-40, 4 h 4 C, protein in an extract, protein details: C-terminal FLAG, label: 5' biotin

Question: Does “TTCAGTCCACGGCTGTCTTTCAACACGGA (double strand)” bind?
Answer: Result: binds
